From article PMC11546553, “Chitin Translocation Is Functionally Coupled with Synthesis in Chitin Synthase” (International Journal of Molecular Sciences, 2024) come the findings set out here.

For this assay, the target named is Phytophthora sojae chitin synthase 1 (Phytophthora sojae) (UniProt G4Z2L3). The experiment in a line: cryo-EM structure; purified PsCHS at 3 mg/mL in digitonin, incubated with 0.5 mM UDP-GlcNAc and 1 mM Mn2+ for 15 min or 40 min at 25 °C before freezing; UDP/Mn2+-bound state resolved for both samples; both purified.

These are yes or no findings as the source states them, for the method shown. Some binding calls cover weakened binding; strength is not graded here.

B1: Phytophthora sojae chitin synthase 1 (enzyme)
chain: MSGAPPPSSGFAPRSYGQQPLSHAPRSSMMSVEYDGIPLPPPSIRSCGSQQYVTSYIPTGAAFPPSSVQDMISSMKSYASATDLVRTYSEIPSVEEALSTLDRAAAALNARRYRDALKLYLEGGYAMANVAERQANPKICNLLTSKGFETLNWCARLCDWIEGRIKEKHPRPGVHKVGIPVSNWDEDWVGPFMDEEEARRMWYTPVYCPHPIDFSNLGYRLRCVETGRRPRLMICITMYNEGPQQLKATLKKLANNLAYLKEQMPGDEKSLTGAFAGDDVWQNVLVCIVADGREQVHPKTLDYLEAIGLYDEDLLTINSAGIGAQCHLFEHTLQLSVNGKCLLPIQTVFALKENKASKLDSHHWYFNAFAEQIQPEYTAVMDVGTMLTKSALYHLLFAFERNHQIGGACGQLTVDNPFENLSNWVISAQHFEYKISNILDKSLESCFGFISVLPGAFSAYRYEAIRGAPLDAYFQTLNIELDVLGPFIGNMYLAEDRILSFEVVARKNCNWTMHYVKDAVARTDVPHDLVGLISQRKRWLNGAFFATLFSIWNWGRIYSESKHTFVRKMAFLVFYVYHLLYTAFGFFLPANLYLALFFIVFQGFQQNRLEFIDTSEYSQTVLDCAVYIYNFSYLFGLLMLIIIGLGNNPKHMKLTYYFVGAVFGLMMMLSSLVGAGIFFSTPATVHSIVVSILTVGVYFIASALHGEVHHIFMTFTHYTALIPSFVNIFTIYSFCNLQDLSWGTKGLHDDPLLAASLDETEKGDFKDVIAKRRALEELRREEKERVENRKKNFEAFRTNVLLTWAFSNLIFALFVVYFASSSTYMPVLYIFVASLNTCRLLGSIGHWVYIHTEGLRGRVIDKSECGNGTGRYPQNSYVQLEEHYAALAEDQRTYASGRTNASVRTVNDVSSAA
notes: Phytophthora sojae chitin synthase 1 (PsCHS1), the PsCHS gene in pcDNA3.1; the final models lack residues 1-22, stretches within 40-90, 738-761 and 860-925; also called PsCHS; PsCHS1; source: HEK293F cells, transfected (pcDNA3.1), purified (digitonin solubilisation, Ni-NTA, Superose 6 Increase SEC)
Take B1: the binding entry is given as “binds”.
